PubChem BioAssay AID1259327 – Drosophila RNAi Screening Center | 2017

- Purpose: 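Knock-downs altering cellular ATP with no metal added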
- Cell system: Drosophila S2R+ cells
- Knock-down reagent: long dsRNA against Drosophila genes
- Timing: 5 days (water added on day 4, read one day later)
- Conditions: water added as vehicle, no metal, one day before read-out
- Measured: 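Total ATP measured by luciferase light, scaled to plate mean, duplicates averaged, then z-scored across plates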
- Scale: ATP z-score: higher = more total ATP than typical wells; ATP luminescence: higher = more total ATP
- Rule for the call: 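Called active when the ATP z-score exceeds 1.5 or falls below -1.5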
- Meaning of the calls: active = hit: ATP up or down; inactive = no clear ATP change
In all, the deposit lists about 3,100 reagents; this is an unselected part. 378 of all reagents (12%) were called active. 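Hits include both directions; z-score sign shows ATP rise or fall; raw luminescence values are not plate-normalised.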 A plus sign joins genes that one reagent is predicted to hit. The record does not give: the amount of reagent.

Silencing of egh (egghead) [DRSC18771] came out at: ATP z-score, duplicate mean -1.91; ATP luminescence, replicate 1 (RLU) = 6.93e5; ATP luminescence, replicate 2 (RLU) = 6.93e5; active. Against egh (egghead) [DRSC29898] the deposit lists ATP z-score, duplicate mean -1.49; ATP luminescence, replicate 1 (RLU) = 4.63e5; ATP luminescence, replicate 2 (RLU) = 4.44e5; inactive. For CG5892 [DRSC15910], the values are ATP z-score, duplicate mean 0.0424; ATP luminescence, replicate 1 (RLU) = 2.93e5; ATP luminescence, replicate 2 (RLU) = 7.86e5; inactive. Silencing of CG5892 [DRSC24710] resulted in: ATP z-score, duplicate mean 0.545; ATP luminescence, replicate 1 (RLU) = 9.71e5; ATP luminescence, replicate 2 (RLU) = 8.64e5; inactive. Depletion of ed (echinoid) [DRSC00350] gave: ATP z-score, duplicate mean -0.922; ATP luminescence, replicate 1 (RLU) = 4.54e5; ATP luminescence, replicate 2 (RLU) = 3.72e5; inactive. After knock-down of ed (echinoid) [DRSC00439] the results were ATP z-score, duplicate mean -0.598; ATP luminescence, replicate 1 (RLU) = 2.65e5; ATP luminescence, replicate 2 (RLU) = 7.16e5; inactive.

Silencing of ed (echinoid) [DRSC00478] gave: ATP z-score, duplicate mean -0.369; ATP luminescence, replicate 1 (RLU) = 6.99e5; ATP luminescence, replicate 2 (RLU) = 6.75e5; inactive. mnd (minidiscs) [DRSC11370] scored ATP z-score, duplicate mean -0.851; ATP luminescence, replicate 1 (RLU) = 7.88e5; ATP luminescence, replicate 2 (RLU) = 7.81e5; inactive. mnd (minidiscs) [DRSC39608] showed ATP z-score, duplicate mean -0.948; ATP luminescence, replicate 1 (RLU) = 4.00e5; ATP luminescence, replicate 2 (RLU) = 4.02e5; inactive. Against Sema1a (Semaphorin 1a) [DRSC03433] the deposit lists ATP z-score, duplicate mean -0.361; ATP luminescence, replicate 1 (RLU) = 7.07e5; ATP luminescence, replicate 2 (RLU) = 6.69e5; inactive. With knock-down of Sur-8 [DRSC15794] the results were ATP z-score, duplicate mean -0.11; ATP luminescence, replicate 1 (RLU) = 3.06e5; ATP luminescence, replicate 2 (RLU) = 7.19e5; inactive. Knock-down of ATP6AP2 (ATPase H+ transporting accessory protein 2) [DRSC16420] resulted in: ATP z-score, duplicate mean -0.178; ATP luminescence, replicate 1 (RLU) = 2.84e5; ATP luminescence, replicate 2 (RLU) = 7.60e5; inactive.

For ATP6AP2 (ATPase H+ transporting accessory protein 2) [DRSC39882], the entry reads ATP z-score, duplicate mean -0.0639; ATP luminescence, replicate 1 (RLU) = 5.68e5; ATP luminescence, replicate 2 (RLU) = 5.91e5; inactive. hrm (hermes) [DRSC04853] scored ATP z-score, duplicate mean -0.449; ATP luminescence, replicate 1 (RLU) = 5.95e5; ATP luminescence, replicate 2 (RLU) = 5.63e5; inactive. Against FucT6 (alpha1,6-fucosyltransferase) [DRSC19848], the entry reads ATP z-score, duplicate mean 0.0194; ATP luminescence, replicate 1 (RLU) = 7.19e5; ATP luminescence, replicate 2 (RLU) = 6.96e5; inactive. FucT6 (alpha1,6-fucosyltransferase) [DRSC26057] scored ATP z-score, duplicate mean 0.229; ATP luminescence, replicate 1 (RLU) = 8.60e5; ATP luminescence, replicate 2 (RLU) = 8.97e5; inactive.

4 entries already listed, arranged by “ATP luminescence, replicate 2 (RLU)”, low to high.
mnd (minidiscs) [DRSC39608]: ATP z-score, duplicate mean = -0.948; ATP luminescence, replicate 1 (RLU) = 4.00e5; ATP luminescence, replicate 2 (RLU) = 4.02e5; activity call = inactive
Sema1a (Semaphorin 1a) [DRSC03433]: ATP z-score, duplicate mean = -0.361; ATP luminescence, replicate 1 (RLU) = 7.07e5; ATP luminescence, replicate 2 (RLU) = 6.69e5; activity call = inactive
Sur-8 [DRSC15794]: ATP z-score, duplicate mean = -0.11; ATP luminescence, replicate 1 (RLU) = 3.06e5; ATP luminescence, replicate 2 (RLU) = 7.19e5; activity call = inactive
ATP6AP2 (ATPase H+ transporting accessory protein 2) [DRSC16420]: ATP z-score, duplicate mean = -0.178; ATP luminescence, replicate 1 (RLU) = 2.84e5; ATP luminescence, replicate 2 (RLU) = 7.60e5; activity call = inactive

Additional results follow.
With knock-down of loj (logjam) [DRSC09791] the results were ATP z-score, duplicate mean -0.113; ATP luminescence, replicate 1 (RLU) = 6.45e5; ATP luminescence, replicate 2 (RLU) = 7.95e5; inactive. For loj (logjam) [DRSC39866], the values are ATP z-score, duplicate mean -3.01; ATP luminescence, replicate 1 (RLU) = 3.11e5; ATP luminescence, replicate 2 (RLU) = 3.46e5; active. Silencing of robo3 (roundabout 3) [DRSC00374] came out at: ATP z-score, duplicate mean -0.135; ATP luminescence, replicate 1 (RLU) = 7.09e5; ATP luminescence, replicate 2 (RLU) = 6.75e5; inactive. robo3 (roundabout 3) [DRSC00684] gave ATP z-score, duplicate mean 0.889; ATP luminescence, replicate 1 (RLU) = 7.97e5; ATP luminescence, replicate 2 (RLU) = 7.98e5; inactive. Against CG17991 [DRSC15294] the deposit lists ATP z-score, duplicate mean 2.48; ATP luminescence, replicate 1 (RLU) = 7.30e5; ATP luminescence, replicate 2 (RLU) = 7.96e5; active. CG14511 [DRSC14863] scored ATP z-score, duplicate mean -1.63; ATP luminescence, replicate 1 (RLU) = 6.04e5; ATP luminescence, replicate 2 (RLU) = 7.73e5; active.

CG14511 [DRSC26574] gave ATP z-score, duplicate mean -0.851; ATP luminescence, replicate 1 (RLU) = 8.81e5; ATP luminescence, replicate 2 (RLU) = 9.82e5; inactive. After knock-down of Inx7 + cm [DRSC18753], the screen gave ATP z-score, duplicate mean 0.292; ATP luminescence, replicate 1 (RLU) = 7.39e5; ATP luminescence, replicate 2 (RLU) = 7.33e5; inactive. Against rt (rotated abdomen) [DRSC11391], the values are ATP z-score, duplicate mean -0.308; ATP luminescence, replicate 1 (RLU) = 8.58e5; ATP luminescence, replicate 2 (RLU) = 8.53e5; inactive. After knock-down of rt (rotated abdomen) [DRSC39519] the results were ATP z-score, duplicate mean -0.113; ATP luminescence, replicate 1 (RLU) = 4.38e5; ATP luminescence, replicate 2 (RLU) = 4.52e5; inactive. Silencing of CG5853 [DRSC01103] gave: ATP z-score, duplicate mean 1.11; ATP luminescence, replicate 1 (RLU) = 8.64e5; ATP luminescence, replicate 2 (RLU) = 8.61e5; inactive. Against CG5853 [DRSC02906], the values are ATP z-score, duplicate mean -1.14; ATP luminescence, replicate 1 (RLU) = 4.13e5; ATP luminescence, replicate 2 (RLU) = 3.84e5; inactive.

For Ae2 (Anion exchanger 2) [DRSC08997] the deposit lists ATP z-score, duplicate mean 1.01; ATP luminescence, replicate 1 (RLU) = 8.03e5; ATP luminescence, replicate 2 (RLU) = 8.62e5; inactive. With knock-down of Ae2 (Anion exchanger 2) [DRSC10969], the screen gave ATP z-score, duplicate mean -0.0625; ATP luminescence, replicate 1 (RLU) = 7.13e5; ATP luminescence, replicate 2 (RLU) = 7.36e5; inactive.
